In publication PMC4036194 one finds binding data, which are given here for 2 molecules.

Experiment [1] addresses Human Nav 1.5 α subunit with a carboxyl-terminal hemagglutinin (HA) epitope tag (human) (UniProt Q14524). In words: co-IP; detergent extract (1% Triton X-100) of tsA 201 cells co-transfected with HA-tagged α and Myc-tagged β3; anti-HA agarose, HA peptide elution; anti-Myc immunoblot; 4 °C. Background: A western blot detects proteins with antibodies after separation by electrophoresis.

In experiment [2] the target is Full-length human β3 subunit with a carboxyl-terminal Myc epitope tag (human) (UniProt Q9NY72). In words: atomic force microscopy (AFM) imaging; Myc-tagged β3 (wild type or C24A) immunoisolated from tsA 201 detergent extract, diluted to ~40 pM, adsorbed to mica, imaged in air in tapping mode; molecular volumes of particles; both purified.
In experiment [3] the target is Nav channel β3 subunit Ig domain with carboxyl-terminal hexa-His tag (human) (UniProt Q9NY72). In words: AUC + cross-linking; sedimentation velocity, chemically cross-linked β3 Ig domain at 0.5 mg/ml, 40,000 rpm, 20 °C, interference data; both purified.

These are yes or no findings as the source states them, for the method shown. For part of these data: In cells and extracts the contact can be indirect. Some entries that bind do so weakly or less than the wild type. Tags and fused reporters may be left off the sequences shown.

B1: Full-length human β3 subunit with a carboxyl-terminal Myc epitope tag (protein, UniProt Q9NY72 23-215)
chain: FPVCVEVPSETEAVQGNPMKLRCISCMKREEVEATTVVEWFYRPEGGKDFLIYEYRNGHQEVESPFQGRLQWNGSKDLQDVSITVLNVTLNDSGLYTCNVSREFEFEAHRPFVKTTRLIPLRVTEEAGEDFTSVVSEIMMYILLVFLTLWLLIEMIYCYRKVSKAEEAAQENASDYLAIPSENKENSAVPVEE
Regarding B1, the binding result in experiment [1] and in experiment [2] was “binds weakly” each time.

B2: Nav channel β3 subunit Ig domain with carboxyl-terminal hexa-His tag (domain or fragment, UniProt Q9NY72 25-145)
chain: VCVEVPSETEAVQGNPMKLRCISCMKREEVEATTVVEWFYRPEGGKDFLIYEYRNGHQEVESPFQGRLQWNGSKDLQDVSITVLNVTLNDSGLYTCNVSREFEFEAHRPFVKTTRLIPLRV
modifications: disulfide bonds Cys-2–24 and Cys-21–96
Turning to B2, the binding entry in experiment [3] is recorded as “binds weakly”.
